# The other results are listed elsewhere or left out. The data scatter; read single values as rough.
# Protein sequences, listed by entry. Tags and fused reporters are not part of them. Lines headed by an entry give the natural chain unless they say otherwise; changes in a name come on top. Residues count along the entry.
# UniProt Q7Z3T8: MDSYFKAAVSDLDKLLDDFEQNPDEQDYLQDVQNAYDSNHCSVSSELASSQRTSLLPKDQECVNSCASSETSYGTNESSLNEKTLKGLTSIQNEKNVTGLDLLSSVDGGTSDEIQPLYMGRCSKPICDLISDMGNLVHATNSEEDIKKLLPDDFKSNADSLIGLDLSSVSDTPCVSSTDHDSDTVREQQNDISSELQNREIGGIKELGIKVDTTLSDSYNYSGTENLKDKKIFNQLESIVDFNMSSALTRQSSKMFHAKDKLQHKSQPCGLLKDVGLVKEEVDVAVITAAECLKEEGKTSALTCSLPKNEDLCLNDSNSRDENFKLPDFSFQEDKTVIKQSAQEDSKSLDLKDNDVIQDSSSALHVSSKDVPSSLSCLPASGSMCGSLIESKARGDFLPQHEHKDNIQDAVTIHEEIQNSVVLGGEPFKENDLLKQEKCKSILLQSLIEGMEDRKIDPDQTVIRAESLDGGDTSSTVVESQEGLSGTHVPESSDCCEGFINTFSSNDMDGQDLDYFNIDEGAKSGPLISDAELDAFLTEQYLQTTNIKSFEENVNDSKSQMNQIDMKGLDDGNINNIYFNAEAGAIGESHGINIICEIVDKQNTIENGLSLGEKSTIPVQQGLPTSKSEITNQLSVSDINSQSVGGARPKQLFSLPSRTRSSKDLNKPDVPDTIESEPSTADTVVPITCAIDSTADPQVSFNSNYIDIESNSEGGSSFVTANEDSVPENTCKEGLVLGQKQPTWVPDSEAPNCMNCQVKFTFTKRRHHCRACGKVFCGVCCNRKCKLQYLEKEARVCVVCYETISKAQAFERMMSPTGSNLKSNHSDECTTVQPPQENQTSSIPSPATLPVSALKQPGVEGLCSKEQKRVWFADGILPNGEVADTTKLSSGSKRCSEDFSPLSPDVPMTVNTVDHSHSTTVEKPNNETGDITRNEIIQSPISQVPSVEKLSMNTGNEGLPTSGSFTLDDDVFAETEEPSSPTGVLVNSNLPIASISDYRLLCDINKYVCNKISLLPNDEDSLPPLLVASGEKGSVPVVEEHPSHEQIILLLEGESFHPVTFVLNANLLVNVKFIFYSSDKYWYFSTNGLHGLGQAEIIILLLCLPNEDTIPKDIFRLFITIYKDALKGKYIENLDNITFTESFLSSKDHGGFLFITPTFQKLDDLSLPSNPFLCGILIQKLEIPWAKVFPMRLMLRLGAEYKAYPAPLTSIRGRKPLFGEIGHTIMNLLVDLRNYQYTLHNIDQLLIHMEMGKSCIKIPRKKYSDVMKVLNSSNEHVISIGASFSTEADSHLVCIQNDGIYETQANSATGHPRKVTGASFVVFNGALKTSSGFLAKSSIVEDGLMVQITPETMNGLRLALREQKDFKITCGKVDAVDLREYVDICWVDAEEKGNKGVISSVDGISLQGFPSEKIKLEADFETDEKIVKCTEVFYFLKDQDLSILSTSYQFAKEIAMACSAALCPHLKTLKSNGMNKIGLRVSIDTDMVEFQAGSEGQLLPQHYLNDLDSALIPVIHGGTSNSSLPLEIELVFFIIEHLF
# UniProt Q16600, 120-144: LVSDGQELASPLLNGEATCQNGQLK
# UniProt Q5SVZ6: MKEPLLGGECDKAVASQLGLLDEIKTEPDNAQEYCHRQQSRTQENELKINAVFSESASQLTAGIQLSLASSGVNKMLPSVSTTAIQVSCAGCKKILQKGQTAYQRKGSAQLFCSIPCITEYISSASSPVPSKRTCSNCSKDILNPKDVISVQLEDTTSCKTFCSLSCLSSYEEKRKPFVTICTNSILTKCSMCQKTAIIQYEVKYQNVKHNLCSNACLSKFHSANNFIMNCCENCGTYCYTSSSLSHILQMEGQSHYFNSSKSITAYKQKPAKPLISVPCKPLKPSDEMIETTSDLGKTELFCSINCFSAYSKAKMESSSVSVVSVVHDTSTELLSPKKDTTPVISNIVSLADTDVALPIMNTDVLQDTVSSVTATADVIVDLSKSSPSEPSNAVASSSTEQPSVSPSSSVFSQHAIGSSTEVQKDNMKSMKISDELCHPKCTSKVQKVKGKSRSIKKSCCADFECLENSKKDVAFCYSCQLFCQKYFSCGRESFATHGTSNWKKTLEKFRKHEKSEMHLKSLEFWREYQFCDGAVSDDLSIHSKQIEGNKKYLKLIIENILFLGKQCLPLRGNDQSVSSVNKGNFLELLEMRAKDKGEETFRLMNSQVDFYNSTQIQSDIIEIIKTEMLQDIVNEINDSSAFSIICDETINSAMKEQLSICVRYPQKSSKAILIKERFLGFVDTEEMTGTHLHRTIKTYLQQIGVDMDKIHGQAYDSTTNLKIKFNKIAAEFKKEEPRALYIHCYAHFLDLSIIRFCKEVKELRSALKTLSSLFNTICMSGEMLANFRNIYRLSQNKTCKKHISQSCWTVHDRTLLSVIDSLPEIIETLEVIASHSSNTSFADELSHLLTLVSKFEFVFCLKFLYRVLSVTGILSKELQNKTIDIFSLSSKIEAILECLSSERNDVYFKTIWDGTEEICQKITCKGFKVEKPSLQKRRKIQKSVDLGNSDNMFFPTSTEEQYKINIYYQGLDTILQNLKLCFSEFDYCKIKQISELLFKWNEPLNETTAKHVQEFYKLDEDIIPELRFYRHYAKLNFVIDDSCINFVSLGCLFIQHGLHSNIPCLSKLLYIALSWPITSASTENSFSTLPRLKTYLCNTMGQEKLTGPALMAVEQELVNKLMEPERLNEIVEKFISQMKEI
# UniProt P59923: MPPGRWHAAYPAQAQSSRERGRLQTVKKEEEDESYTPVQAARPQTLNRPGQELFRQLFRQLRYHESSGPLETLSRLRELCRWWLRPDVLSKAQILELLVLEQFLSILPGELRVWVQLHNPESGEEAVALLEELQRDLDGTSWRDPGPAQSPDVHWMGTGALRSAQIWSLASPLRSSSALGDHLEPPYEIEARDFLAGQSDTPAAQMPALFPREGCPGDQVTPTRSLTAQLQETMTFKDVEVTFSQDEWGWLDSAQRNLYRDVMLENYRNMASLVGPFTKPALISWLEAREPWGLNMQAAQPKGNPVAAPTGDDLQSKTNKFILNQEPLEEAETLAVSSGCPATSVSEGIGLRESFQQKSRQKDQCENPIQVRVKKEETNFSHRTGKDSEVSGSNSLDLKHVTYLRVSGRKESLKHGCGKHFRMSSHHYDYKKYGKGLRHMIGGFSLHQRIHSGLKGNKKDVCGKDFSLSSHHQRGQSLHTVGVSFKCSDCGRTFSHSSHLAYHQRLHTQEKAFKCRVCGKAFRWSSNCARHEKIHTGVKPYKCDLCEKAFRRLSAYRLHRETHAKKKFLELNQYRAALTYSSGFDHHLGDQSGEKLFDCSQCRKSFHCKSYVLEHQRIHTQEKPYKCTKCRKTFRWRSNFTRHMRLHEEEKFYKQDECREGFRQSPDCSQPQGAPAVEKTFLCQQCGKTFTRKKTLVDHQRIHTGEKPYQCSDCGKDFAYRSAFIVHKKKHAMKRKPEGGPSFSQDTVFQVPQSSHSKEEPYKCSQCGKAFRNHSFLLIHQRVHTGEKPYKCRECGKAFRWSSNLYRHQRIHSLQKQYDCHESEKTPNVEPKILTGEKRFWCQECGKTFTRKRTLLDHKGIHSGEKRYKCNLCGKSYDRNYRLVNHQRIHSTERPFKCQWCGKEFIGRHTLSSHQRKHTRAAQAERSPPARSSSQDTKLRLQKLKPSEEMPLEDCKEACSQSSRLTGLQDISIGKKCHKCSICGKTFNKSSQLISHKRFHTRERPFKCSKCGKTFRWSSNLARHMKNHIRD
# UniProt A7E2V4, 1084-1110: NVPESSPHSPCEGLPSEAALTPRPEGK
# UniProt Q9UGR2: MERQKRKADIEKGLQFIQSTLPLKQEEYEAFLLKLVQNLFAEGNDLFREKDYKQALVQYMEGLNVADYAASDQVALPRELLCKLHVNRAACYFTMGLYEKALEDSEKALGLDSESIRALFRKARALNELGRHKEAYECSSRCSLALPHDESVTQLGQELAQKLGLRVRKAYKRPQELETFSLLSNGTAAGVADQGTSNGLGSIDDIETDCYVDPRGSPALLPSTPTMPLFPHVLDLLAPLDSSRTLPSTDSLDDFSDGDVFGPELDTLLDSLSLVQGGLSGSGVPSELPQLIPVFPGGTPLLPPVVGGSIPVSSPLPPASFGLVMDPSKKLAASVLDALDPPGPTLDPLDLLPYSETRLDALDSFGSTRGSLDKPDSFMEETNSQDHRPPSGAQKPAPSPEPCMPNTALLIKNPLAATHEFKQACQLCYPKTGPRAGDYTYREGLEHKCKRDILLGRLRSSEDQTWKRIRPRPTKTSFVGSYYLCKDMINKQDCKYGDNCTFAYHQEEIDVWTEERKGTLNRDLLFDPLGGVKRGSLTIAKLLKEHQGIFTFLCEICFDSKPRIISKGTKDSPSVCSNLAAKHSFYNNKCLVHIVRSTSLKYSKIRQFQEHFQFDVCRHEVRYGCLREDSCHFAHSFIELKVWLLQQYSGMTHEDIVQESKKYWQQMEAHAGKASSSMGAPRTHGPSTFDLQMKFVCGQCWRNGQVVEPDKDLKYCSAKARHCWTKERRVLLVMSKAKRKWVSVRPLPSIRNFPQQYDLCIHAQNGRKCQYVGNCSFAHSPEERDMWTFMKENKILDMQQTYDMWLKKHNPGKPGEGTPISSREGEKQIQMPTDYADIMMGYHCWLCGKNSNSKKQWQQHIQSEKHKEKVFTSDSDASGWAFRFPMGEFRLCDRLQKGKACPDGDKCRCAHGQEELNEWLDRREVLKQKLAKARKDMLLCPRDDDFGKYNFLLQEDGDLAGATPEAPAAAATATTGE
# UniProt Q8IYH5, 642-662: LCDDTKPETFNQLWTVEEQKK
# UniProt Q6FIF0: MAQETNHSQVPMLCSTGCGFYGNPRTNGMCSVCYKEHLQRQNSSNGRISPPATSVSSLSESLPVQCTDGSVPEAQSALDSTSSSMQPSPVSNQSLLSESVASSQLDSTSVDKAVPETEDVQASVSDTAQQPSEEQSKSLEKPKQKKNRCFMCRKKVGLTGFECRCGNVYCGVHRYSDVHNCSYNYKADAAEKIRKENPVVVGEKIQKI
# UniProt Q96JP5: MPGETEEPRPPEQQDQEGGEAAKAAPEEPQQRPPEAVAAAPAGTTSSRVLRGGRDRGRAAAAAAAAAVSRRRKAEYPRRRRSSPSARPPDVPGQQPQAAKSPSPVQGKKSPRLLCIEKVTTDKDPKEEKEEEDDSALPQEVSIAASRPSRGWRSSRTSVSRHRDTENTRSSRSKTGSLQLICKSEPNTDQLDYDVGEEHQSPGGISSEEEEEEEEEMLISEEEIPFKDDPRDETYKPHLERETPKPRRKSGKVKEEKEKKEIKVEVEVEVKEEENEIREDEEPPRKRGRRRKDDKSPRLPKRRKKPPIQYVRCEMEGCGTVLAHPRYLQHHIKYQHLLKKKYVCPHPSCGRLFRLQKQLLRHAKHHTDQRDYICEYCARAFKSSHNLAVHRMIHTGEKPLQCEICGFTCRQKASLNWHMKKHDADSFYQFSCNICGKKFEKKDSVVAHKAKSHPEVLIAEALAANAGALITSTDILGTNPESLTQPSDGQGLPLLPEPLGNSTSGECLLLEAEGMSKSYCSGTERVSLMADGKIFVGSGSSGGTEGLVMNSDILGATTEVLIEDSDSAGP
# UniProt Q8IWR0: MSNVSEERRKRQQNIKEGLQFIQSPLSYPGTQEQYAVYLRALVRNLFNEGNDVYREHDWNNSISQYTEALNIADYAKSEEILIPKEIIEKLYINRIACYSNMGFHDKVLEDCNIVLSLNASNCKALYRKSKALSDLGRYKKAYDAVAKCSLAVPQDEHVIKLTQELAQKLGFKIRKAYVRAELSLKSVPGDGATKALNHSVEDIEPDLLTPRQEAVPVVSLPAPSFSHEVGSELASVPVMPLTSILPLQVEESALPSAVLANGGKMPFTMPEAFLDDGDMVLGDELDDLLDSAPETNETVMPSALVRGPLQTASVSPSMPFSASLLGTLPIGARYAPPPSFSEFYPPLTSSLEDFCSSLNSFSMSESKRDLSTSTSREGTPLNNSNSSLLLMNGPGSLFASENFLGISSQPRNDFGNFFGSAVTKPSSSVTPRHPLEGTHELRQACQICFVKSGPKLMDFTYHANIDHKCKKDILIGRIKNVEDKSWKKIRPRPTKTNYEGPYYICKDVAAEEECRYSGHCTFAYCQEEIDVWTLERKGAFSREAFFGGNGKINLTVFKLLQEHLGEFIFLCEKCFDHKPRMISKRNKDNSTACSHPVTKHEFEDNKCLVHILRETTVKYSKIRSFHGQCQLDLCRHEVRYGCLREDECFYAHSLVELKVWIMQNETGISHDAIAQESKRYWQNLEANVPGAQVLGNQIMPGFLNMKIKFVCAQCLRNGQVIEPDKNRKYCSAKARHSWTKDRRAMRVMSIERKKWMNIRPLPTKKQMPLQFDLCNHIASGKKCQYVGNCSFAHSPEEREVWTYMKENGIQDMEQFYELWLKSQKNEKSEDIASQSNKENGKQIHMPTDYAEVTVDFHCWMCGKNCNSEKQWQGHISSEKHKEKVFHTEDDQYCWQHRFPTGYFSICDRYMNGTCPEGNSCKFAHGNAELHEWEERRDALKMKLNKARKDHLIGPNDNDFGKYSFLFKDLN
# UniProt Q9C0G0, 1228-1247: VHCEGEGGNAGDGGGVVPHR
# Compound: ClCC(=O)N[C@H]1CCCc2ccccc12
# Experiment: log2 mean competition ratio of IA-DTB cysteine labelling (DMSO/compound) (log2 ratio); higher = stronger cysteine engagement by compound
# Details: 50 µM; treatment time: 4 h; cell line lysate: HEK293T
# Procedure: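 IA-DTB competitive cysteine chemoproteomics in HEK293T RIPA lysate. Lysates were treated with compound 29 or 30 at 50 or 200 µM for 4 h, then IA-DTB (500 µM, 1 h), trypsin-digested, NeutrAvidin-enriched and analysed by diaPASEF. Competition ratio = intensity DMSO / intensity compound (n=4 treated, n=64 DMSO); binding: mean log2 CR ≥ 1 and p ≤ 0.05 plus QC filters. Target is the cysteine site.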
row,Target,log2 mean competition ratio
1,ZFYVE16 C304 (UniProt Q7Z3T8),0.443
2,ZNF239 C138 (UniProt Q16600),-0.587
3,ZMYM1 C1098 (UniProt Q5SVZ6),-0.255
4,ZDBF2 C1937,0.24
5,ZRANB3 C587,-0.173
6,ZNF302 C274,0.418
7,ZNF791 C311,-0.266
8,ZNF644 C554 (UniProt Q9H582),-0.187

# Same assay, conditions: 200 µM; treatment time: 4 h; cell line lysate: HEK293T
row,Target,log2 mean competition ratio
1,ZNF512B C871 (UniProt Q96KM6),-0.0262
2,ZNF318 C242 (UniProt Q5VUA4),0.124
3,ZNF445 C215 (UniProt P59923),0.058
4,ZNF620 C87,-0.108
5,ZNF398 C275,-0.167
6,ZNF516 C114 (UniProt Q92618),0.325
7,ZNHIT1 C140 (UniProt O43257),0.00785
8,ZFC3H1 C1587 (UniProt O60293),0.413
9,ZC3HAV1L C7 (UniProt Q96H79),0.056
10,ZC3HAV1 C272 (UniProt Q7Z2W4),-0.17
11,ZNF446 C164,0.0856
12,ZSWIM8 C1094 (UniProt A7E2V4),-0.397
13,ZDBF2 C1575,-0.0389
14,ZMYM1 C10 (UniProt Q5SVZ6),0.129
15,ZCCHC8 C157 (UniProt Q6NZY4),-0.268
16,ZC3H7B C940 (UniProt Q9UGR2),0.321
17,ZZZ3 C643 (UniProt Q8IYH5),-0.211
18,ZFAND6 C163 (UniProt Q6FIF0),0.00374

row,Target,log2 mean competition ratio
1,ZFYVE16 C863 (UniProt Q7Z3T8),0.358
2,ZFP91 C520 (UniProt Q96JP5),0.152
3,ZNF496 C324,-0.131
4,ZNF276 C136,0.204
5,ZEB1 C503 (UniProt P37275),0.253
6,ZNF446 C33,0.0127
7,ZNF623 C97,0.0427
8,ZC3H7A C894 (UniProt Q8IWR0),-0.0897
9,ZMYND8 C138 (UniProt Q9ULU4),-0.255
10,ZNF407 C1230 (UniProt Q9C0G0),-0.229
11,ZFHX4 C964 (UniProt Q86UP3),0.127
12,ZFYVE16 C304 (UniProt Q7Z3T8),0.237
13,ZNF239 C138 (UniProt Q16600),-0.445
14,ZMYM1 C1098 (UniProt Q5SVZ6),-0.0065
15,ZDBF2 C1937,0.0937
16,ZRANB3 C587,-0.21
17,ZNF302 C274,0.181
18,ZNF644 C554 (UniProt Q9H582),0.189

# Source: the supplement of paper PMC11732987, “Enantioselective OTUD7B fragment discovery through chemoproteomics screening and high-throughput optimisation” (Communications Chemistry, 2025)
